Results taken from paper PMC12824188.
Results are given in words; binding and its absence hold for the method and conditions named. Binding seen in cells or lysates may run through a third protein. Some entries that bind do so weakly or less than the wild type.

Protein sequences, listed by entry. Tags and fused reporters are not part of them. Lines headed by an entry give the natural chain unless they say otherwise; changes in a name come on top. Chains listed by the source or under a name are the forms on record and can include a tag or linker.
exogenous PKCβII (P05771-2, form named): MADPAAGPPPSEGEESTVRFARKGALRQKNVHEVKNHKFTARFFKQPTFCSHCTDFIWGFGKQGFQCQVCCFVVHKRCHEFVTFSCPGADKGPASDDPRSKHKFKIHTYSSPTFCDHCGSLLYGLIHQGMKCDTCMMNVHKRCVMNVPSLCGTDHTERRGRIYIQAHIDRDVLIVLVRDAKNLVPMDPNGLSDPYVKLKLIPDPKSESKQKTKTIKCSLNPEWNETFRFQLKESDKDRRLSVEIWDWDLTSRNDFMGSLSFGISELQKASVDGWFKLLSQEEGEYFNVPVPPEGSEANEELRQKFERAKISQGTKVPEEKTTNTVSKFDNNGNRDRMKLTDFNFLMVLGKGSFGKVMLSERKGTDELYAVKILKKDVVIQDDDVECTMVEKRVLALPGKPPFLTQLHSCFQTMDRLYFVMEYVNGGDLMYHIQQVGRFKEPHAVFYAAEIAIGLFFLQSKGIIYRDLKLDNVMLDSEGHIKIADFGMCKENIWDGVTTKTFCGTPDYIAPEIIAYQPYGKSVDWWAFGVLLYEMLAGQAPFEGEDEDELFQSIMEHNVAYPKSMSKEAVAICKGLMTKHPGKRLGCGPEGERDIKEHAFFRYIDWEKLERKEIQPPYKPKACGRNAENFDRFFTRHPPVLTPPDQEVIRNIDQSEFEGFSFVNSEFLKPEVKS
UniProt Q2M2I8: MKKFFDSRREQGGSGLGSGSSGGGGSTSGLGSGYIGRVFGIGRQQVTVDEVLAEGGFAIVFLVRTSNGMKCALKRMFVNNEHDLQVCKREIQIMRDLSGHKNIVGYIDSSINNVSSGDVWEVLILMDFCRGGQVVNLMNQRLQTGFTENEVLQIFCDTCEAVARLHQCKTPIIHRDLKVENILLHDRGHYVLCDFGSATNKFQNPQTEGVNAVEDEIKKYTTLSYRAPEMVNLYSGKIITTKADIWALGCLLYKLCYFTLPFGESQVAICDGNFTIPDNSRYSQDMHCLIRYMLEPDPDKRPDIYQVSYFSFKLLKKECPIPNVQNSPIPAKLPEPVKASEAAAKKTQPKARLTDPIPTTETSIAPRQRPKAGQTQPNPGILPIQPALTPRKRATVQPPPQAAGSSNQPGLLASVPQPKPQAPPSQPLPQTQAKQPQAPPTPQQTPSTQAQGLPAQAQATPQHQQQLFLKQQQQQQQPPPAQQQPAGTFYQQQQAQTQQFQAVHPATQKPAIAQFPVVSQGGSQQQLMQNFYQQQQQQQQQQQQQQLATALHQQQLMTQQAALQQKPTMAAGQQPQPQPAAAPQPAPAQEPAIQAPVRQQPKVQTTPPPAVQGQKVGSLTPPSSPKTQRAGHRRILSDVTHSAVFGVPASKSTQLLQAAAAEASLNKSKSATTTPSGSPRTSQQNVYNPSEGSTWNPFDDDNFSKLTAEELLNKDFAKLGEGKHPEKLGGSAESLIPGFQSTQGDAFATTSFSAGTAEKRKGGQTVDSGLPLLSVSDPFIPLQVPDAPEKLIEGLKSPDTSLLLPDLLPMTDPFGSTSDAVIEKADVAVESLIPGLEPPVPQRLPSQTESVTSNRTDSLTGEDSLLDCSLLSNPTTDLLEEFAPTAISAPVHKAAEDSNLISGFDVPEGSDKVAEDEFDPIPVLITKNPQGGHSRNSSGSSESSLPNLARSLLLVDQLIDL

Key:
[1] = biological target: endogenous PKCβII (human (endogenous in MDA-MB-231 and HT1080)) (UniProt P05771); experiment: co-IP; Cells (MDA-MB-231, HT1080) treated with erastin at rising concentrations for 12 h, some with the PKC inhibitors Go6983 or enzastaurin; Pierce IP lysis buffer with phosphatase or protease inhibitors; 1 mg lysate protein with 2 μg primary antibody at 4 °C overnight; protein A/G agarose beads 2 h at 4 °C; four washes; western blot. Endogenous PKCβII or endogenous AAK1 precipitated.
[2] = biological target: endogenous AP2-associated protein kinase 1 (AAK1) (human (endogenous in MDA-MB-231 and HT1080)) (UniProt Q2M2I8); experiment: as above

Row | binding [1] | binding [2] | Substance
1 | binds | – | endogenous AP2-associated protein kinase 1 (AAK1) (from UniProt Q2M2I8 1-961) (enzyme)
2 | – | binds | endogenous PKCβII (from UniProt P05771-2 1-673) (enzyme)
3 | binds | – | exogenous AAK1 (from UniProt Q2M2I8 1-961) (enzyme)
4 | – | binds | exogenous PKCβII (from UniProt P05771-2 1-673) (enzyme)
